Results reported in the supplement of paper PMC4635364.
Structures can show the parent of a compound that is named as a salt. The list shows a part of the results. Repeats in this data set agree poorly, so a single value says little.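 ReNCell VM, a human fetal ventral-midbrain neural progenitor line, was differentiated without mitogens. Blinded raters scored images stained for doublecortin (early neurons) or tyrosine hydroxylase (dopaminergic neurons) against untreated wells (0 = no change). Scores were averaged across repeats and both raters, and compounds averaging 2 or more were selected as hits for retesting.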

System: ReNCell VM
Experiment: dopaminergic neuron differentiation score (TH+ cell fraction vs untreated, manual image score) (score (0 to 3)); higher = more TH+ dopaminergic neuron differentiation
Conditions: library: Tocriscreen; 2 uM; 4 weeks; BDNF 10 ng/ml + GDNF 10 ng/ml

SMILES	dopaminergic neuron differentiation score
Cc1nc2c(O)cccc2c(=O)[nH]1	inactive: 0
CN1CCC(Nc2ncc3ncnc(Nc4ccc(F)c(Cl)c4)c3n2)CC1 [BIBX 1382 dihydrochloride]	inactive: 0
CCN1CCC[C@H]1CNC(=O)c1cc(S(N)(=O)=O)ccc1OC [(S)-(-)-Sulpiride]	inactive: 0
CCc1cc(C(C)=O)c(O)cc1OCCCCCC(C)(C)c1nn[nH]n1	inactive: 0
N[C@H](C(=O)O)c1cc(O)cc(O)c1	inactive: 0
